Experimental data: the supplement of paper PMC12819154, “High-throughput peptide-centric local stability assay extends protein–ligand identification to membrane proteins, tissues and bacteria” (Nature Structural & Molecular Biology, 2025)
This is one part of the list. Small differences around the control level are noise.

By UniProt entry, the sequences of proteins in these tests, tags left out. Where a name states a change or a piece, a line headed by the entry shows the natural chain unless it says otherwise.
UniProt Q3SXZ3: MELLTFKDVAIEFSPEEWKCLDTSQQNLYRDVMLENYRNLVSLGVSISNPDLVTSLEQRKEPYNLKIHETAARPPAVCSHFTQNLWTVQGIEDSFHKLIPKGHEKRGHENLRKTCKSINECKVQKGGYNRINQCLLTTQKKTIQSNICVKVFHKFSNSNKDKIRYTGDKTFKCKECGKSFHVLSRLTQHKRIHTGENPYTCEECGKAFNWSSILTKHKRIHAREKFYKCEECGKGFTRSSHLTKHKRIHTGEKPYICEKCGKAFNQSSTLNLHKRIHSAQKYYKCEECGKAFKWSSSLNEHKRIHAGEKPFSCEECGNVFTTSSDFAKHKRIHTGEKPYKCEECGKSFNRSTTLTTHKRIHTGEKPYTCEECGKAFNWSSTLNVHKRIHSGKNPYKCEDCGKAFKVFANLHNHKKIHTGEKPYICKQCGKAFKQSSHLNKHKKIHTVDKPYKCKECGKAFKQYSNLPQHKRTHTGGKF
UniProt Q58FF8, whole entry: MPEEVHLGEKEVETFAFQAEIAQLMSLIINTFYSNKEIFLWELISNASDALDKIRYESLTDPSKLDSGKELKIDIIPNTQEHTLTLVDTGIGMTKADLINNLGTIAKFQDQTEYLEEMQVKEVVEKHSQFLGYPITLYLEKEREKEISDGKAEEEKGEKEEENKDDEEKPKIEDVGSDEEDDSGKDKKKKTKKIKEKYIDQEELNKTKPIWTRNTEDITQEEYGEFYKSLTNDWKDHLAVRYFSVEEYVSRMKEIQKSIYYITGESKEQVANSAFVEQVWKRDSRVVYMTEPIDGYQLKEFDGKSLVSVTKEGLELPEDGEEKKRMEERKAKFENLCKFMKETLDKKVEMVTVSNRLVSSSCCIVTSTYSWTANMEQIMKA
UniProt Q5T8P6: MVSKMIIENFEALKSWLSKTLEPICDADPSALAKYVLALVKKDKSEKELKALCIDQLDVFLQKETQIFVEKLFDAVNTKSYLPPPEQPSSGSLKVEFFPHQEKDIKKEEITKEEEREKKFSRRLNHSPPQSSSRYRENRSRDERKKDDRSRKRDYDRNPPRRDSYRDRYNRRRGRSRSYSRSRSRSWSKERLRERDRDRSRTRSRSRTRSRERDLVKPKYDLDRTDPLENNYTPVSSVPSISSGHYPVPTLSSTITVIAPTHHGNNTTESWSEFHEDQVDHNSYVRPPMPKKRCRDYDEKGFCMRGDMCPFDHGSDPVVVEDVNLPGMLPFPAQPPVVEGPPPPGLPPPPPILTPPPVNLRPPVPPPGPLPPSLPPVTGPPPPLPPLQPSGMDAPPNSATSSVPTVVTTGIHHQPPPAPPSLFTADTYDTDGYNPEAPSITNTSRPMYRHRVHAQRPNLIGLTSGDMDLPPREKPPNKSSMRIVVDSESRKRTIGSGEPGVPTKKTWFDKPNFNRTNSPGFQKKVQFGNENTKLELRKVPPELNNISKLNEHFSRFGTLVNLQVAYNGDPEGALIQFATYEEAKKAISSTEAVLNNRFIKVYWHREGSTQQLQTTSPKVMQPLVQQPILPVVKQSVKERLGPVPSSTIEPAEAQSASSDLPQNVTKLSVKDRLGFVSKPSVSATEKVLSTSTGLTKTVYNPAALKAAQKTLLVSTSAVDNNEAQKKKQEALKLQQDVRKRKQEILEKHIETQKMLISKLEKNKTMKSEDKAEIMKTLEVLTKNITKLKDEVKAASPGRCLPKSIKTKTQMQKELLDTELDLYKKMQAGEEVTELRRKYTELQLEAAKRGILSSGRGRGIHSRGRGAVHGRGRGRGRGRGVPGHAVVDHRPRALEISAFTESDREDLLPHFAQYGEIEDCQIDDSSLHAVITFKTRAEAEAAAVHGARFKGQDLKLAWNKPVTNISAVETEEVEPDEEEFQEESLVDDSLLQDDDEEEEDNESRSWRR
UniProt Q5HYJ3: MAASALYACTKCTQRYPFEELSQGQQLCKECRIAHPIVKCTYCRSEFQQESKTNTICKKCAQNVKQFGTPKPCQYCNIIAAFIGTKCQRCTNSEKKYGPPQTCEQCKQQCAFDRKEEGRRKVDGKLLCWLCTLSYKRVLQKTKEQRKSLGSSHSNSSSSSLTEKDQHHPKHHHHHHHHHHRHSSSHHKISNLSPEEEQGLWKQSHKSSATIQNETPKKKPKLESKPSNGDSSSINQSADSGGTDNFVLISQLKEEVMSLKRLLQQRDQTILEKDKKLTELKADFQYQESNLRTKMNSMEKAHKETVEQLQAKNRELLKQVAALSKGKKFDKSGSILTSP
UniProt Q58FF6, whole entry: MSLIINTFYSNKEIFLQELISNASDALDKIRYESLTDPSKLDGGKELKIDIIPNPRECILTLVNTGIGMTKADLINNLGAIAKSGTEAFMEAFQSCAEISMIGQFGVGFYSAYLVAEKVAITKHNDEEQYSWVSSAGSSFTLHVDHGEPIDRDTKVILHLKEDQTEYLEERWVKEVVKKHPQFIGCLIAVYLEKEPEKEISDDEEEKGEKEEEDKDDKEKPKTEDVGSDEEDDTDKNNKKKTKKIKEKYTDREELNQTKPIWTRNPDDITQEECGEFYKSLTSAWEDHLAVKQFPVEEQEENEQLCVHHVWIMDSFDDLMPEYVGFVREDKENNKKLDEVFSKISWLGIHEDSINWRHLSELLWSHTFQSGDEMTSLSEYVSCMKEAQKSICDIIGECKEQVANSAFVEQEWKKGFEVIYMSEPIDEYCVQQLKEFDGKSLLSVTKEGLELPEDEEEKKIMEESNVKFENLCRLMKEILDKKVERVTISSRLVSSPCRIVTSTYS
UniProt Q504U0: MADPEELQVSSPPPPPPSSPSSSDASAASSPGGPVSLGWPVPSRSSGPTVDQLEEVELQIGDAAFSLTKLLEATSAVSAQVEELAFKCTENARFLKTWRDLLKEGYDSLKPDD
UniProt Q4V328: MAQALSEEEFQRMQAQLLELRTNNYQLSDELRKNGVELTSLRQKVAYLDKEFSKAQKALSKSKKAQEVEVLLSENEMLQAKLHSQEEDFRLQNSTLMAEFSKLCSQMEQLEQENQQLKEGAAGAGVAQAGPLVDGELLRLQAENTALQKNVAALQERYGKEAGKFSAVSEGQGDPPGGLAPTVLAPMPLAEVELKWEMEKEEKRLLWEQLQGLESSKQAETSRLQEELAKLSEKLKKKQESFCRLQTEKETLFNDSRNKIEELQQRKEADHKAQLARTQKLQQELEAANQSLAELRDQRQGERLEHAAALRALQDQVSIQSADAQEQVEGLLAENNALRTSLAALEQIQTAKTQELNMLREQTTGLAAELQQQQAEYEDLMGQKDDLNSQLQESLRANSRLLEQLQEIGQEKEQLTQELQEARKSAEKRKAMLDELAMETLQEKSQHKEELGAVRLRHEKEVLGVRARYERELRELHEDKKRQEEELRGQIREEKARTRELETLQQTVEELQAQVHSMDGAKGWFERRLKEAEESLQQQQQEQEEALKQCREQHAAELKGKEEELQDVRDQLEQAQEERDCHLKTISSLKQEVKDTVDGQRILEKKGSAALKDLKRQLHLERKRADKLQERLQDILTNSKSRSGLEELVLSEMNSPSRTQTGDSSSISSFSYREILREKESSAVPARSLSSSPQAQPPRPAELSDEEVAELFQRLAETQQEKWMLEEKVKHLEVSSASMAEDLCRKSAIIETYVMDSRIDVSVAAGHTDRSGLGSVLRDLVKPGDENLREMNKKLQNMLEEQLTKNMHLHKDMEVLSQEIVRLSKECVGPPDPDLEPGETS
UniProt Q567U6, whole entry: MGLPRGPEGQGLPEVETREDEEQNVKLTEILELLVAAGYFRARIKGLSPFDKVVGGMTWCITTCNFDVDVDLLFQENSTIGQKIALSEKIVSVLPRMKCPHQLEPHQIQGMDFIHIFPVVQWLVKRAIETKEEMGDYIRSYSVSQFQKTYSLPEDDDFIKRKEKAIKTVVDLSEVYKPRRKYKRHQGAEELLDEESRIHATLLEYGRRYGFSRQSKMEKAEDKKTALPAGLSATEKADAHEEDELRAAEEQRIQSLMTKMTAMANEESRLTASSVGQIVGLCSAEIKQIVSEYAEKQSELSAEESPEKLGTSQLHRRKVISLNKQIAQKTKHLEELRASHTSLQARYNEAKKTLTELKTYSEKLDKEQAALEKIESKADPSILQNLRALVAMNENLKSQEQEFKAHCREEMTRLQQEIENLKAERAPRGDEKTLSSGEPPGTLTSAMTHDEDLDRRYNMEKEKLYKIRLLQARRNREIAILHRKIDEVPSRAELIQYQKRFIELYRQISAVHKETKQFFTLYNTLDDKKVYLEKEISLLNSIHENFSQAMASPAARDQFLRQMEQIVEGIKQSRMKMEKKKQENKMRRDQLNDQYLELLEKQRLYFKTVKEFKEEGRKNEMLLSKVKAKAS
UniProt Q5T3J3: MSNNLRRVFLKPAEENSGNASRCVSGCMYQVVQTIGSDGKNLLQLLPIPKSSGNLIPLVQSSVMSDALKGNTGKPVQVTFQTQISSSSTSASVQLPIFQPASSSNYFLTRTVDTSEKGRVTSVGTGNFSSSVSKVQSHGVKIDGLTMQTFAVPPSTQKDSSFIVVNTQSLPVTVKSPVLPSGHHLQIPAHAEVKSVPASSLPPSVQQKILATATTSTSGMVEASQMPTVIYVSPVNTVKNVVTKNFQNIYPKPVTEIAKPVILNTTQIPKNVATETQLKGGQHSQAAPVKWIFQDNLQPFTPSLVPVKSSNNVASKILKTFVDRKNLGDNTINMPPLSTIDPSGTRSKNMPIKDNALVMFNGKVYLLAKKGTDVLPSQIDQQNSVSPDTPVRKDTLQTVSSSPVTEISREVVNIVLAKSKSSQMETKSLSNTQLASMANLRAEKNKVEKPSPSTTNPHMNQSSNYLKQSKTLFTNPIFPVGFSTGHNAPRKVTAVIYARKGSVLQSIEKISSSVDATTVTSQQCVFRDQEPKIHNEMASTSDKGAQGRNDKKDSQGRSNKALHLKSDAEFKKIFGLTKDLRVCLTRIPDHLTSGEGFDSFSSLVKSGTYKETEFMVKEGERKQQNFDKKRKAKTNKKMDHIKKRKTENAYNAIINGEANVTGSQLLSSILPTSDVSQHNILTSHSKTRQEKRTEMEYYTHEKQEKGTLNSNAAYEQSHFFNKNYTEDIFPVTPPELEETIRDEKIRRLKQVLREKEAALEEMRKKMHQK
UniProt Q5J8M3, whole entry: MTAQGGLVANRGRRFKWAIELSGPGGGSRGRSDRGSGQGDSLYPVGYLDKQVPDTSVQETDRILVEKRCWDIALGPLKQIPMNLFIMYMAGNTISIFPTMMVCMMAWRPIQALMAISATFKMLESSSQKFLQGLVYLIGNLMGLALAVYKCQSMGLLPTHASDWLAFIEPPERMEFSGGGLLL
UniProt Q5T7W0: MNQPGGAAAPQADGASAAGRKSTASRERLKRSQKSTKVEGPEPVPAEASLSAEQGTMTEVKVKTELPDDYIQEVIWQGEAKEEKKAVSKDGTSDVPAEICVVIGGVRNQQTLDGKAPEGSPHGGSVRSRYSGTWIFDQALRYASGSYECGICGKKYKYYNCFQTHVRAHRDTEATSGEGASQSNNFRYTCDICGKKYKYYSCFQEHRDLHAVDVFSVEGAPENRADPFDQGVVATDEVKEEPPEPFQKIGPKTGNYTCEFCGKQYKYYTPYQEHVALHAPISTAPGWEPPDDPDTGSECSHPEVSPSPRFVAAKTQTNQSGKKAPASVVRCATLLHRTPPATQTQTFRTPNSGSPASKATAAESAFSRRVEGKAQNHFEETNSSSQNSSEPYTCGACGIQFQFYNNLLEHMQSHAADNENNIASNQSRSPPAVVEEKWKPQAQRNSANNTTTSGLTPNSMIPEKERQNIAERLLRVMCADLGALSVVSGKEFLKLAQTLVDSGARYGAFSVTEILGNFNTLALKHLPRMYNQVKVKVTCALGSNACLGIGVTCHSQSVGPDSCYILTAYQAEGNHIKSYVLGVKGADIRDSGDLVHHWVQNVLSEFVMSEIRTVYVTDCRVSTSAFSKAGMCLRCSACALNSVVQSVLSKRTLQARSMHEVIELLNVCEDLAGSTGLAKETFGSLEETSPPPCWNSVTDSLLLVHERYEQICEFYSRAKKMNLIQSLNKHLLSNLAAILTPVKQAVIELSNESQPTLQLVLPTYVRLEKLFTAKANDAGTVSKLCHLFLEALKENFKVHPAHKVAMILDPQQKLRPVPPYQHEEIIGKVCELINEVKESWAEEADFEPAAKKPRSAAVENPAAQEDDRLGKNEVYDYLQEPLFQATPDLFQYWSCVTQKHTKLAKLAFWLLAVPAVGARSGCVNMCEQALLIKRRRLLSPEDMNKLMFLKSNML
UniProt Q5MNZ6: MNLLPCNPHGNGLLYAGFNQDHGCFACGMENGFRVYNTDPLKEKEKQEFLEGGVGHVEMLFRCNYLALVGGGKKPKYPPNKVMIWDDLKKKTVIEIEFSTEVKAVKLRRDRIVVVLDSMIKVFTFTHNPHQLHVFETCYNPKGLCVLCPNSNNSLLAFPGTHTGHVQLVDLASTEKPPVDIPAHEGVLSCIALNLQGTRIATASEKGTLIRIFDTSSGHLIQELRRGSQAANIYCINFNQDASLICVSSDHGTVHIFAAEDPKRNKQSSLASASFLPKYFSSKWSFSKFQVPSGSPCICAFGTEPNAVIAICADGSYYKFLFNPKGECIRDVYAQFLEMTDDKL

Compound: Cc1nc(Nc2ncc(C(=O)Nc3c(C)cccc3Cl)s2)cc(N2CCN(CCO)CC2)n1 [dasatinib]
Test: log2 fold change of tryptic peptide abundance, ligand vs vehicle (limited proteolysis) (log2 ratio); higher = more trypsin-susceptible (destabilized)
Details: ligand concentration: 5 uM; sample: K562 cleared lysate

Target	log2 fold change
UniProt Q3SXZ3 (peptide sequence: DVMLENYR, peptide start residue: 35)	0.00107
UniProt Q4VXU2 (peptide sequence: CFGFVNFEKHEEAQK, peptide start residue: 232)	-0.302
NA (peptide sequence: GAQQAYDAPAPSR, peptide start residue: 479) (UniProt Q4G0T1)	-0.0675
HSP90AB2P (peptide sequence: YESLTDPSKLDSGK, peptide start residue: 56) (UniProt Q58FF8)	-0.128
UniProt Q5VT25 (peptide sequence: EDLNKELVQASER, peptide start residue: 545)	0.304
RBM26 (peptide sequence: CRDYDEK, peptide start residue: 294) (UniProt Q5T8P6)	0.592
VPS53 (peptide sequence: RPGGPSNVLR, peptide start residue: 230) (UniProt Q5VIR6)	-0.367
FAM76B (peptide sequence: SLGSSHSNSSSSSLTEKDQHHPK, peptide start residue: 148) (UniProt Q5HYJ3)	-1.34
ATF7IP2 (peptide sequence: NKHEGIADK, peptide start residue: 355) (UniProt Q5U623)	0.0867
CCDC92 (peptide sequence: ASTIAYLTSQLHAAK, peptide start residue: 152) (UniProt Q53HC0)	-0.401
FNDC3B (peptide sequence: SSCTTVYNGYGK, peptide start residue: 216) (UniProt Q53EP0)	-0.701
HSP90AB4P (peptide sequence: SLIINTFYSNK, peptide start residue: 2) (UniProt Q58FF6)	-0.227
UniProt Q4G148 (peptide sequence: SLLKPLELELQK, peptide start residue: 397)	0.126
ARL13B (peptide sequence: NNEFGLVENYK, peptide start residue: 311) (UniProt Q3SXY8)	0.592
ANO6 (peptide sequence: NMGVIAER, peptide start residue: 889) (UniProt Q4KMQ2)	-0.126
C4orf46 (peptide sequence: EGYDSLKPDD, peptide start residue: 104) (UniProt Q504U0)	-0.189
GRIPAP1 (peptide sequence: KAMLDELAMETLQEK, peptide start residue: 430) (UniProt Q4V328)	0.287
CCDC93 (peptide sequence: EEMGDYIR, peptide start residue: 132) (UniProt Q567U6)	-0.269
UniProt Q5T3J3 (peptide sequence: NMPIKDNALVMFNGK, peptide start residue: 349)	0.291
UniProt Q5JUR7 (peptide sequence: LKIPFGNK, peptide start residue: 8)	-0.103
TUBB8 (peptide sequence: AVLVDLEPGTMDSVR, peptide start residue: 63) (UniProt Q3ZCM7)	-0.277
UniProt Q5J8M3 (peptide sequence: WAIELSGPGGGSR, peptide start residue: 17)	0.119
UniProt Q58FG0 (peptide sequence: HSQFIGYPITLFVEK, peptide start residue: 210)	-0.142
BCORL1 (peptide sequence: NGDPSTWVK, peptide start residue: 696) (UniProt Q5H9F3)	0.373
TIMM50 (peptide sequence: LEQEEQQR, peptide start residue: 318) (UniProt Q3ZCQ8)	0.076
CCDC18 (peptide sequence: LESELENKDEILR, peptide start residue: 343) (UniProt Q5T9S5)	0.209
UniProt Q5T2D3 (peptide sequence: IFGNQGLNEGR, peptide start residue: 307)	-0.36
ZNF618 (peptide sequence: TPNSGSPASK, peptide start residue: 349) (UniProt Q5T7W0)	0.761
UniProt Q5MNZ6 (peptide sequence: QSSLASASFLPK, peptide start residue: 267)	0.169

Two entries from above, set out differently.

| Target | log2 fold change |
| --- | --- |
| UniProt Q3SXZ3 (peptide sequence: DVMLENYR, peptide start residue: 35) | 0.00107 |
| HSP90AB4P (peptide sequence: SLIINTFYSNK, peptide start residue: 2) (UniProt Q58FF6) | -0.227 |
